No constants are given. Whether binding was seen depends on the method and setting. Binding seen in cells or lysates may run through a third protein. Some results given as binding are weak or reduced against the parent protein; the word gives no strength.
Experiments:
[1] = target: GST-fusion protein of the binding domain of PAK-1 on glutathione agarose effector bed (UPSTATE) (UniProt Q13153); test: effector pull-down on GST-PAK-1 binding domain agarose, anti-FLAG Western blot (FIG. 3-B)
[2] = target: GST-fusion protein of the binding domain of PAK-1 on glutathione agarose effector bed (UPSTATE) (UniProt Q13153); test: effector pull-down on GST-PAK-1 binding domain agarose, anti-FLAG Western blot
[3] = target: RhoA expressed as an N-terminal GST-fusion protein (Canis lupus familiaris (Dog) (Canis familiaris)) (UniProt P24406); test: GST pull-down, anti-FLAG Western blot
[4] = target: Cdc42 expressed as an N-terminal GST-fusion protein (Mus musculus (Mouse)) (UniProt P60766); test: GST pull-down, anti-FLAG Western blot

Chains of the proteins cited; added tags and fusions are not shown. Lines headed by an entry give the natural chain unless they say otherwise; changes in a name come on top. Residues count along the entry.
UniProt Q13153, residues 67-150: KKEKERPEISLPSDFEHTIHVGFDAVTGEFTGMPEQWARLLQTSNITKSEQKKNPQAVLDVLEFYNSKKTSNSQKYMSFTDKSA
UniProt P60766: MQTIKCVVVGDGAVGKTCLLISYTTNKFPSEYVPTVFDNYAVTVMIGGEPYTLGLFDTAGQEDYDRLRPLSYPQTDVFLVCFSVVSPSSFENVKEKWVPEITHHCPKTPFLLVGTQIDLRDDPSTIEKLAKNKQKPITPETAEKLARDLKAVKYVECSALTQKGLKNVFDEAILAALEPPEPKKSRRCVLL
UniProt P60953: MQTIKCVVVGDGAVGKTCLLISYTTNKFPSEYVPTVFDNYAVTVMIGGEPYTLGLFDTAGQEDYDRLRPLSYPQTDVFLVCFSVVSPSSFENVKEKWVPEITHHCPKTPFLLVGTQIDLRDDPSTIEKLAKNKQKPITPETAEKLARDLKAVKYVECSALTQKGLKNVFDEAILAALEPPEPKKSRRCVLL
UniProt P10911: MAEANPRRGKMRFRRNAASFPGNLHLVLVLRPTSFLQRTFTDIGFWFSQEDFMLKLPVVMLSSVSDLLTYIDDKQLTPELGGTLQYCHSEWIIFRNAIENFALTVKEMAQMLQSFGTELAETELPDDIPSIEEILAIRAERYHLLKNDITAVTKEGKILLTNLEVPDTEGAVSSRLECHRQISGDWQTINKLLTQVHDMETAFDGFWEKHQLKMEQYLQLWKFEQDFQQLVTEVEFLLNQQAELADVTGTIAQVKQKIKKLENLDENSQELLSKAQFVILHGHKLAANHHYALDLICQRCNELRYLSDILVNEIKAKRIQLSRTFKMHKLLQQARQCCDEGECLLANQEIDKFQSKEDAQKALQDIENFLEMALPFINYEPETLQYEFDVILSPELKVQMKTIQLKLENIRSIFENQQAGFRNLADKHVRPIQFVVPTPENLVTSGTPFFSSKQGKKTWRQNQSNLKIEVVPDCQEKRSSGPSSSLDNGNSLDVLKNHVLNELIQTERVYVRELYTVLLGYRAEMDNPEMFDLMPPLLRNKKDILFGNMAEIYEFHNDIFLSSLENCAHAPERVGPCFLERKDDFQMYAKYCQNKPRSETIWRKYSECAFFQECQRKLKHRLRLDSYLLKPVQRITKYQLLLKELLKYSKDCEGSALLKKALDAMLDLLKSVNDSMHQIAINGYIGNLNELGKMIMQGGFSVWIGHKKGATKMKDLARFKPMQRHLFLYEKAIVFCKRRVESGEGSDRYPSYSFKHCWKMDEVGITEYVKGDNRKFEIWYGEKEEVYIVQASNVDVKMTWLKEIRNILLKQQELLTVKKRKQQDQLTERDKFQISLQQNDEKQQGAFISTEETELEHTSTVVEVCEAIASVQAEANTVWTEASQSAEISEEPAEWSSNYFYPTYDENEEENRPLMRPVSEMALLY

Row | Substance | binding [1] | binding [2] | binding [3] | binding [4]
1 | Cdc42 expressed as an N-terminal 3×FLAG-tagged protein (from UniProt P60953 1-188) | binds | binds |  | 
2 | proto-Db1 DH/PH (C-terminal FLAG-tagged protein) (from UniProt P10911 494-811) |  |  | binds | binds
